Reference: article PMC3288065
These are yes or no findings as the source states them, for the method shown. Binding can be weak; no strength is given. For part of these data: Where a sequence is shown, tags or fusion partners need not be part of it. For part of these data: Binding seen in cells or lysates may run through a third protein.

T1: ProLabel-TRX (porcine) (UniProt P82460)
T1 sequence: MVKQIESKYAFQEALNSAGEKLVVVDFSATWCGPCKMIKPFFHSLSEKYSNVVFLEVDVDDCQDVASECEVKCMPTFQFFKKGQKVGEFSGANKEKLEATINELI

B1: ProLabel-TRX (protein, UniProt P82460 1-105)
chain: T1 sequence
B2: His-TRX (reduced form in the DTT-treated samples) (protein, UniProt P82460 1-105)
chain: T1 sequence
B3: ProLabel-Guanine nucleotide binding protein (G protein), gamma 11 (protein, UniProt A0A8W4FGM1 1-73)
chain: MPALHIEDLPEKEKLKMEVEQLRKEVKLQRQQVSKCSEEIKNYIEERSGEDPLVKGIPEDKNPFKEKGSCIIS
B4: ProLabel-Selenoprotein K (protein, UniProt Q2EN82 1-94)
chain: MVYISNGQALDSRSQSPWRLSFITDFFWGIAEFVVLFFRTLLQQDVKKRRGYGGSSDSRYDDGRGPPGNPPRRMGRINHLRGPNPPPMAGGUGR
B5: ProLabel-Transmembrane protein CD9 (protein, UniProt Q8WMQ3 1-226)
chain: MPVKGGTKCIKYLLFGFNFIFWLAGIAVLAIGLWLRFDSQTKSIFEQENNNSSFYTGVYILIGAGALMMVVGFLGCCGAVQESQCMLGLFFGFLLVIFAIEIAAAIWGYSHKDQVIKEVQDFYRDTYNKLKGKDDPQRETLKAIHYALDCCGLMGEVEQLLADICPQRDVLSSLPMKPCPEAIKEVFQNKFHIIGAVGIGIAVVMIFGMIFSMILCCAIRRSREMV

How the values were obtained:
ProLabel-TRX (porcine) = target: T1, ProLabel-TRX (porcine); assay: co-IP; transfected HEK293 lysate with anti-TRX polyclonal antibodies and protein G plus/A agarose beads; western blot with anti-GFP monoclonal antibodies for GFP-SzP
[1] = target: GFP-SzP fusion protein (Streptococcus equi ssp. zooepidemicus ATCC35246); assay: co-IP; HEK293 co-transfected with pAcGFP1-SzP (or pAcGFP1-C) and pProLabel fusions (or pProLabel-C); lysate with anti-GFP monoclonal antibody and protein G plus/A agarose beads at 4°C; ProLabel chemiluminescence read on the beads
[2] = target: SzP anchored on the surface of viable S. zooepidemicus wild strain ATCC35246 (Streptococcus equi ssp. zooepidemicus ATCC35246); assay: flow cytometry on cells; 5x10^7 CFU/mL viable S. zooepidemicus wild strain or SzP-knockout strain in 2 mg/mL TRX, 30 min, 37°C; rabbit anti-TRX polyclonal antibodies and FITC goat anti-rabbit IgG; only the binder purified

Row | Molecule | binding [1] | further results
1 | GFP-SzP fusion protein | – | binding (ProLabel-TRX (porcine)): binds
2 | B1 | binds | –
3 | B2 | – | binding [2]: binds
4 | B3 | no binding | –
5 | B4 | no binding | –
6 | B5 | no binding | –
